This assay has as its target BTG1 two-hybrid fusion (UniProt P62324). The assay is described as follows: two-hybrid.

Amino acid sequences for entries named in this document (tags omitted). A change or cut given only in a name is not applied to a line headed by its entry.
UniProt P62324: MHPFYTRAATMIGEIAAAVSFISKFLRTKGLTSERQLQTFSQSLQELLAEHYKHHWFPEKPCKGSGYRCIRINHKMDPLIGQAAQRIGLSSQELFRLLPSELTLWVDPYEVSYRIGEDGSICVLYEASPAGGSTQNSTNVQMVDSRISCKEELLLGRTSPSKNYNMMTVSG
UniProt Q9UIV1: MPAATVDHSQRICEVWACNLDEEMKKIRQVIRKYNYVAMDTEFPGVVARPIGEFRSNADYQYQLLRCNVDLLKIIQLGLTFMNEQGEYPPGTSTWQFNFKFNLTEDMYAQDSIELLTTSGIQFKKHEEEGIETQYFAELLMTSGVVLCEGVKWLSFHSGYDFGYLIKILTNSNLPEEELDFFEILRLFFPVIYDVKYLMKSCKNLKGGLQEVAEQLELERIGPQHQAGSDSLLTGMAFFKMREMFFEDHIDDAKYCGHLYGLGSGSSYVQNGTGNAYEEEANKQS

Results are given in words; binding and its absence hold for the method and conditions named.

With “AD-CNOT7 E247A,Y260A (from UniProt Q9UIV1 1-285)”, the binding entry is on record as “no binding”.

The record behind these values is PMC11774319.
